Laboratory results taken from publication PMC6868236.
Results are given in words; binding and its absence hold for the method and conditions named. Binding seen in cells or lysates may run through a third protein. These calls come from enrichment with a bait or labelling near it, and not all partners need be listed. For part of these data: No binding means not detected with the bait.

Protein sequences, listed by entry. Tags and fused reporters are not part of them.
UniProt Q9HFE8: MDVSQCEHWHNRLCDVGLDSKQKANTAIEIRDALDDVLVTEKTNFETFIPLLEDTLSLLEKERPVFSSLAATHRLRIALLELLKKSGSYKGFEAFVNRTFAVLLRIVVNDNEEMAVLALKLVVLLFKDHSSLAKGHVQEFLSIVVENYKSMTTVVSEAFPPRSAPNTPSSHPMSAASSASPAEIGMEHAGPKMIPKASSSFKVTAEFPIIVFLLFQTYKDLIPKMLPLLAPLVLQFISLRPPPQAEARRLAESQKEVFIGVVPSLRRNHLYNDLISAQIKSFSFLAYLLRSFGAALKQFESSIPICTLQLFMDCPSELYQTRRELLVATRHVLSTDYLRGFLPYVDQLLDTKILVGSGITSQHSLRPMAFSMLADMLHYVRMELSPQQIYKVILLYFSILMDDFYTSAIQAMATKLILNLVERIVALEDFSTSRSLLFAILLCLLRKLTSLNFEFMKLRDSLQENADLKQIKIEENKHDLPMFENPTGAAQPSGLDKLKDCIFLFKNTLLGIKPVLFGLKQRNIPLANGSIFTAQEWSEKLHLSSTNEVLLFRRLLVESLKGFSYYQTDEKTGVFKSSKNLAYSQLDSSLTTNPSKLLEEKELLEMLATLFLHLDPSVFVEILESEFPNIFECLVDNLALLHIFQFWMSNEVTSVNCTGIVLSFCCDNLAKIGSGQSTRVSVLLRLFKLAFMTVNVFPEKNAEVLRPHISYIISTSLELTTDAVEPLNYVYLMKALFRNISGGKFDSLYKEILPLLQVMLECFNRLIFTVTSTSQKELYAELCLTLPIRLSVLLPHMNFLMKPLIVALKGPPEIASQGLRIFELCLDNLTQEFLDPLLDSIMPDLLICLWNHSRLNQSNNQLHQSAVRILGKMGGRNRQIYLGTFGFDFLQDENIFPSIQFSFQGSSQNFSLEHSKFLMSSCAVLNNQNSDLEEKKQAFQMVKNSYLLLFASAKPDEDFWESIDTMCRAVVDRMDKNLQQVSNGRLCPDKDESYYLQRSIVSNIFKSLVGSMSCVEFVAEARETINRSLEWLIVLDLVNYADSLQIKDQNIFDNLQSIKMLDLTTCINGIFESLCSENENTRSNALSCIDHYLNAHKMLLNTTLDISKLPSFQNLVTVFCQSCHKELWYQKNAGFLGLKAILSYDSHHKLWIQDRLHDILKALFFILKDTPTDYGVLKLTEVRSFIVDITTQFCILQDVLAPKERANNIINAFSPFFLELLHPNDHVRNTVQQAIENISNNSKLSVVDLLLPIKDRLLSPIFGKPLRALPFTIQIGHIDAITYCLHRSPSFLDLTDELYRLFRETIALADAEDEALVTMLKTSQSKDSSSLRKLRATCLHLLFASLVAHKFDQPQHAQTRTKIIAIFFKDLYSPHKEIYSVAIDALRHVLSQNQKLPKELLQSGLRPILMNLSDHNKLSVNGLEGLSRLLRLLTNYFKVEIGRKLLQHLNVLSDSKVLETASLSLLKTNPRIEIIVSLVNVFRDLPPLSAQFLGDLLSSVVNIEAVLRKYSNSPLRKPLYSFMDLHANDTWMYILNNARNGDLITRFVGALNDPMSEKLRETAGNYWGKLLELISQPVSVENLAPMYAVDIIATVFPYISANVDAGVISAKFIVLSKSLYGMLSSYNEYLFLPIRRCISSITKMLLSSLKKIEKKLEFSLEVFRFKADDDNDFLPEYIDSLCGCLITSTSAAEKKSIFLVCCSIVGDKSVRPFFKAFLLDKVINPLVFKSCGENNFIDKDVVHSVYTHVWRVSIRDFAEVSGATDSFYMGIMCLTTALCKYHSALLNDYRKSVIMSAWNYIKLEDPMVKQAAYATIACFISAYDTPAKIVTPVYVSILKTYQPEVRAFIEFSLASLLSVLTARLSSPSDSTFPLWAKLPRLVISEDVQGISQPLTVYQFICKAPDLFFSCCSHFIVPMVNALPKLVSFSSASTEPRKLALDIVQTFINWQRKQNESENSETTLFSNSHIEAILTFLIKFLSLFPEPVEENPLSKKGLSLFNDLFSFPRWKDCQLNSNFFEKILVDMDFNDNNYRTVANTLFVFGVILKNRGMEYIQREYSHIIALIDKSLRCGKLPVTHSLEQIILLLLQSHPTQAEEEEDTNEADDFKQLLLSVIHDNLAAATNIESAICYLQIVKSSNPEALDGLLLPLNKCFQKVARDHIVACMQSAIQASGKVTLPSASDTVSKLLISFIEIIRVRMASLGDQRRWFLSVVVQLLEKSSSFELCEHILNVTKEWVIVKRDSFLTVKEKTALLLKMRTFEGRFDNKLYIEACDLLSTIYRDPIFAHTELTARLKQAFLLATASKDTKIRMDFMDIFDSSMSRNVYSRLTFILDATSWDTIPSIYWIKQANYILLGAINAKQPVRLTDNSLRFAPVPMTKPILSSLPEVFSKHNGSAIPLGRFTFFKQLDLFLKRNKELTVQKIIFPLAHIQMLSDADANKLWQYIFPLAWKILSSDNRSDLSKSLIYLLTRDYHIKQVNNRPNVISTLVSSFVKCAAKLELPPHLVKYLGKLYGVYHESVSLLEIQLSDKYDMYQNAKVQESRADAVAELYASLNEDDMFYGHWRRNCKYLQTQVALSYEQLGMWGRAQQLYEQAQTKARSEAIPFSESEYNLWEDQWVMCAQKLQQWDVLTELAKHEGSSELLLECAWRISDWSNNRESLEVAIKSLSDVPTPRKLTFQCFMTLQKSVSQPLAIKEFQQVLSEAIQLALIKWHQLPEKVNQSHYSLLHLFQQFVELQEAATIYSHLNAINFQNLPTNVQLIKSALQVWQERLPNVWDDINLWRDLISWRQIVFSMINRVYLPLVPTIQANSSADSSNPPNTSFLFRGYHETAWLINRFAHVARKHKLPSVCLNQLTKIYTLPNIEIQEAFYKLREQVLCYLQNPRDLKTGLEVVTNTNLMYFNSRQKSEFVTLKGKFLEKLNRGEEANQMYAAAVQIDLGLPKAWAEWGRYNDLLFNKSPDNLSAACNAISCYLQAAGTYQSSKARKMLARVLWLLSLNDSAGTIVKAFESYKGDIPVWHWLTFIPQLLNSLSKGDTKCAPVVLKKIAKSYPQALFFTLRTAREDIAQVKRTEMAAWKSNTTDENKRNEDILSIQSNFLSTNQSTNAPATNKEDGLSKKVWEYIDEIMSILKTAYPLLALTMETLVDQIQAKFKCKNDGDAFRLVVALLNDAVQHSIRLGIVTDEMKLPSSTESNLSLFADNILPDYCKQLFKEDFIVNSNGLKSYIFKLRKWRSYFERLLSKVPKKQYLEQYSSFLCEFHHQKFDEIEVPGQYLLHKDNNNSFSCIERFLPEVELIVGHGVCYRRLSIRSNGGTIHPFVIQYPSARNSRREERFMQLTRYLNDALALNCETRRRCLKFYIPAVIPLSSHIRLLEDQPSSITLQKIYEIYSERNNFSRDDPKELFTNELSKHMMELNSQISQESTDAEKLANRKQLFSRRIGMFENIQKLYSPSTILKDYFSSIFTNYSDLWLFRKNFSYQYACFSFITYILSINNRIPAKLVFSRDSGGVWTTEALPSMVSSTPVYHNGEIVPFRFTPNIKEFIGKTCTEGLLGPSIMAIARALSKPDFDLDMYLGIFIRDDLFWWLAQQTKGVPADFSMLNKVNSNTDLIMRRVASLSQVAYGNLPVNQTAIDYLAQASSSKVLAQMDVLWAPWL

T1: Tti2-TAP (S. pombe) (S. pombe) (UniProt O94729)
T1 sequence: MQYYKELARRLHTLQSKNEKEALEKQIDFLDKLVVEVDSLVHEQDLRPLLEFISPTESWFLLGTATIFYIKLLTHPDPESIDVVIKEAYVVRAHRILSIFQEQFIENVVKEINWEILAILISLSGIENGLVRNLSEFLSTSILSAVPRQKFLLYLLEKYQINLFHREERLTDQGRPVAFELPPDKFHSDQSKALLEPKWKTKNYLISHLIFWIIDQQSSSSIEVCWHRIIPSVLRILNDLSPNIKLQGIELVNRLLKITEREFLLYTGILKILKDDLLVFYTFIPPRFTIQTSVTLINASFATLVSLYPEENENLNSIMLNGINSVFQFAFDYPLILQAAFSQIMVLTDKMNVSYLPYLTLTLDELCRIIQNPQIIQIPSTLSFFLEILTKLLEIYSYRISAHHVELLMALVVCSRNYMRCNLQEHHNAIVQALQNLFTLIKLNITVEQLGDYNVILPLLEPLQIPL

T2: Spt7-TAP (S. pombe) (S. pombe) (UniProt P87152)
T2 sequence: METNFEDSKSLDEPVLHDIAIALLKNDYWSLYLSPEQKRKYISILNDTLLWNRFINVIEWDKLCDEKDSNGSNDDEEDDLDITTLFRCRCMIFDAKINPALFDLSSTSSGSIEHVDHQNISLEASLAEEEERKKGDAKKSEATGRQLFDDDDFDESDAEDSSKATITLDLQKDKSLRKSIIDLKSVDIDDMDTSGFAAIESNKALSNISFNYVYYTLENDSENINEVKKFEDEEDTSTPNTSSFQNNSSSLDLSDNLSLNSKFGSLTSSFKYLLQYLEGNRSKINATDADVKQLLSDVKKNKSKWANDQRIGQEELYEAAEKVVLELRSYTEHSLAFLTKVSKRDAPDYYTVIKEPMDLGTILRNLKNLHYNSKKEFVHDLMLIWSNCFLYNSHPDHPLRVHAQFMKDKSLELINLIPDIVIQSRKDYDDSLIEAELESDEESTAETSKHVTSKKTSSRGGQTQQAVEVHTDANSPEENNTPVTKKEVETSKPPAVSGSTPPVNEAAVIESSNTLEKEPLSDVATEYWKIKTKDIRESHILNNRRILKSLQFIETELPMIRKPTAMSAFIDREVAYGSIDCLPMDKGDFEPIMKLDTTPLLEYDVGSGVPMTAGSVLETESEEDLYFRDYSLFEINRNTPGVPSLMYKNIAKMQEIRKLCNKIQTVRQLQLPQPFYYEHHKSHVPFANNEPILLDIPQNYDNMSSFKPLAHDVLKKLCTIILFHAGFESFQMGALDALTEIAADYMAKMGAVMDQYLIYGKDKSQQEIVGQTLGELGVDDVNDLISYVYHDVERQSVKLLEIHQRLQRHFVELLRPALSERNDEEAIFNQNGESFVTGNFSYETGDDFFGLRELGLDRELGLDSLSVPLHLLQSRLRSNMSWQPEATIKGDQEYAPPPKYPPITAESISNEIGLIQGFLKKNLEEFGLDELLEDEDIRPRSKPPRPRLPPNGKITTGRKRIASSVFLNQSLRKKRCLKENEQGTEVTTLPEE

T3: Mst1-TAP (S. pombe) (S. pombe) (UniProt O94446)
T3 sequence: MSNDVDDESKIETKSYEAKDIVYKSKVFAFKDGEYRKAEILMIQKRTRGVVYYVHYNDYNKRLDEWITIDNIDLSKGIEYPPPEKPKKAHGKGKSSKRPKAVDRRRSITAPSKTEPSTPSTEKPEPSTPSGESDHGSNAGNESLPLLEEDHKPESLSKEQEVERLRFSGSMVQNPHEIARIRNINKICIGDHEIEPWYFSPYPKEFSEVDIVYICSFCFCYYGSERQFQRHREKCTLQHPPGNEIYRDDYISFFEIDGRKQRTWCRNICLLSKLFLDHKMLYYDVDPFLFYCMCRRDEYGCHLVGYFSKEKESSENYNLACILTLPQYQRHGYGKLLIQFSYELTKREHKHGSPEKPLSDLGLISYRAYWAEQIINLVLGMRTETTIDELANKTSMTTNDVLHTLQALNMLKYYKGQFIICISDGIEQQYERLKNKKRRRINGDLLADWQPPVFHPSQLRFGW

B1: Spt20-290 (S. pombe Spt20 truncation, residues 291-474 deleted) (domain or fragment, UniProt O14174 1-290)
chain: MERNNGLGDYTYRYHGKELSLDDFQNKQGIESSDDAFLSKIYENVSNFNVPRKLHDIEHKFSKEEPSLILHIHKFHFRFEQQDGAFTYNGPVKSILQYIRMELIPPDCLEVFRNSDVKFYDGCLTVRIIDHRQSPSADQTVQPQPGSTNQQQQNNTNPINNQPEDTKPNTNSPPVYHTVLRPTPETLWQDLCLLSESFANSLSDEAVLTLESNILLASEAPLFLTPAKSKAEMIQFMNQLADSAPPCTRKKPQGSAQLADEEAERLEKENLLLLMDDQRKRDFQPTFQRL
B2: Spt20-300 (S. pombe Spt20 truncation, residues 301-474 deleted) (domain or fragment, UniProt O14174 1-300)
chain: MERNNGLGDYTYRYHGKELSLDDFQNKQGIESSDDAFLSKIYENVSNFNVPRKLHDIEHKFSKEEPSLILHIHKFHFRFEQQDGAFTYNGPVKSILQYIRMELIPPDCLEVFRNSDVKFYDGCLTVRIIDHRQSPSADQTVQPQPGSTNQQQQNNTNPINNQPEDTKPNTNSPPVYHTVLRPTPETLWQDLCLLSESFANSLSDEAVLTLESNILLASEAPLFLTPAKSKAEMIQFMNQLADSAPPCTRKKPQGSAQLADEEAERLEKENLLLLMDDQRKRDFQPTFQRLQFIENVRRKR
B3: Spt20-HITΔ (S. pombe Spt20 with the HIT region deleted) (protein, UniProt O14174)
chain: MERNNGLGDYTYRYHGKELSLDDFQNKQGIESSDDAFLSKIYENVSNFNVPRKLHDIEHKFSKEEPSLILHIHKFHFRFEQQDGAFTYNGPVKSILQYIRMELIPPDCLEVFRNSDVKFYDGCLTVRIIDHRQSPSADQTVQPQPGSTNQQQQNNTNPINNQPEDTKPNTNSPPVYHTVLRPTPETLWQDLCLLSESFANSLSDEAVLTLESNILLASEAPLFLTPAKSKAEMIQFMNQLADSAPPCTRKKPQGSAQLADEEAERLEKENLLLLMDDQRKRDFQPTFQRAILQQRQMQMQQQQKAQQQQSPKAQQPPAHLVQSAPVQRKTTPKIQRLPPSSIQIPPPKPMQKFPANAASSESPPNATGNFLPSGPVPANEPMLKRESVDLIKIRQLAILFQQRASQLKARGATREQITEILNRQAIAAGTDLATVMTVARNLHFQQLQMRQQQQQQQMKAER
B4: Sgf73 (S. pombe) (protein, UniProt O94397 1-344)
chain: MLTEQQTLELFPENWERNEQVLLKYPDGLPKDVLADQRVDNTESQVKDEITSNITNQTQILLPADSFPQYGSYPNNSELDYVVCTKCDRPFLSEYIEDHHSSCNGIKPPKPQFEPVANSQVLNKDVNNGNNAPIKNGVKSTAKGSAGNHEKNSVNGQKNPEMPPKRRKTEENKKPTKSALPKKEASKKKNPKVKGPVDVEKQCGVLLPNGQMCARSLTCKTHSMSSKRAVPGRSQPYDVLLAACQKKNQVKIQRQILETAKESEDNQHQAPVDSDEEVSFIMNVLQKSGNQPLEQKVFLPVKRRHSYFRTRELIAAAFRHGEQGMQVTGTILGRVIPFSARQPL
B5: Taf12 (S. pombe) (protein, UniProt O13722 1-450)
chain: MNGQHSSPGTPVQRPSAGPVNQAQFSQQRTNQLTSLLHTMTMYQQLAQNVGLNTPQGQVYLLQAQTIRRQLQGHAQSGQLPNQQLLQQLQSNGALQQGTPEPSNTRPRPQLNAQEQTMLLVRHRQLQTAQNYLTEMKEALGRIKNELSTNERLDTSAREALVKQESELTVKIAQFTAAISNGIRSIQQLQNRQASSANGNNTGTSTPVNASTDTRKSTASTPQLQQTQAQANAPQQRINPETSSVPETPVGVSAANVSNESTELATSATQQSGLANNVEKSQTPSYMSANHLPKVDSKSPIPFSVPPSRATLTGGYASGSIGLSTPGLSRAPHYELDNGNRLLSKRKLHDLLQQIDSEEKIEPEVEELLLEIADEFVESVTNFACRLAKHRKSDTLDVRDVQLHLERNWNIRLPGFASDDIVKSARKTGPTPSYQQKQNAIGTAKSLNKD
B6: Spt20 (S. pombe) (protein, UniProt O14174 1-473)
chain: MERNNGLGDYTYRYHGKELSLDDFQNKQGIESSDDAFLSKIYENVSNFNVPRKLHDIEHKFSKEEPSLILHIHKFHFRFEQQDGAFTYNGPVKSILQYIRMELIPPDCLEVFRNSDVKFYDGCLTVRIIDHRQSPSADQTVQPQPGSTNQQQQNNTNPINNQPEDTKPNTNSPPVYHTVLRPTPETLWQDLCLLSESFANSLSDEAVLTLESNILLASEAPLFLTPAKSKAEMIQFMNQLADSAPPCTRKKPQGSAQLADEEAERLEKENLLLLMDDQRKRDFQPTFQRLQFIENVRRKRAILQQRQMQMQQQQKAQQQQSPKAQQPPAHLVQSAPVQRKTTPKIQRLPPSSIQIPPPKPMQKFPANAASSESPPNATGNFLPSGPVPANEPMLKRESVDLIKIRQLAILFQQRASQLKARGATREQITEILNRQAIAAGTDLATVMTVARNLHFQQLQMRQQQQQQQMKAER
B7: Spt20 lacking its N-terminal half (residues 1-255 deleted) (domain or fragment, UniProt O14174 256-473)
chain: AQLADEEAERLEKENLLLLMDDQRKRDFQPTFQRLQFIENVRRKRAILQQRQMQMQQQQKAQQQQSPKAQQPPAHLVQSAPVQRKTTPKIQRLPPSSIQIPPPKPMQKFPANAASSESPPNATGNFLPSGPVPANEPMLKRESVDLIKIRQLAILFQQRASQLKARGATREQITEILNRQAIAAGTDLATVMTVARNLHFQQLQMRQQQQQQQMKAER

Assays:
[1] = target: T1, Tti2-TAP (S. pombe) (S. pombe); assay: affinity purification with mass spectrometry; tandem affinity purification of Tti2 from S. pombe extracts, LC-MS/MS with label-free quantification, TAP against no-TAP samples
[2] = target: T2, Spt7-TAP (S. pombe) (S. pombe); assay: affinity purification with mass spectrometry; tandem affinity purification of SAGA by Spt7-TAP from S. pombe extracts (WEB or CLB buffer), EGTA eluates, silver staining and LFQ LC-MS/MS (prey to bait ratio); wild-type, tra1 hybrid and spt20 mutant strains; also tti2-CKO with DMSO or β-estradiol, RI-tra1, tel2-AID and hsp90 mutant strains
[3] = target: T3, Mst1-TAP (S. pombe) (S. pombe); assay: affinity purification with mass spectrometry; tandem affinity purification of NuA4 by Mst1-TAP, Epl1-TAP or Vid21-TAP from S. pombe extracts, silver staining and LFQ LC-MS/MS; also tti2-CKO and tra2-CKO strains with DMSO or β-estradiol

| binding [1] | binding [2] | binding [3] | Molecule |
| --- | --- | --- | --- |
| binds |  |  | FLAG-Tra1 (S. pombe, wild type) (from UniProt Q9HFE8 1-3661) |
|  | binds |  | Spt20-FIEN (S. pombe Spt20 with the four FIEN residues of the HIT region mutated) (from UniProt O14174) |
|  | binds |  | Spt20-RRKR (S. pombe Spt20 with the four RRKR residues of the HIT region mutated) (from UniProt O14174) |
| binds |  | binds | Tra2 (S. pombe) (from UniProt Q10064 1-3655) |
|  | binds |  | B1 |
|  | binds |  | B2 |
|  | binds |  | B3 |
|  | binds |  | B4 |
|  | binds |  | B5 |
|  | binds |  | B6 |
|  | no binding |  | B7 |
